Values of other authors as cited in patent publication US12606543B2, “Indole derivatives as serotonergic agents useful for the treatment of disorders related thereto” (priority 2023, dated 2026).
Like-named read-outs stand apart in the source and are kept apart here. At least one structure is not confirmed: it was looked up by name or label, or the drawing left a doubt.

Conditions: tobacco use disorder, cited from earlier work

For `CN(C)CCc1c[nH]c2cccc(OP(=O)(O)O)c12` [psilocybin, 4-phosphoryloxy-N,N-dimethyltryptamine], the abstinence rate (12 months follow-up) is listed as 67% and the abstinence rate (six months follow-up) is listed as 80%.
